Results published in PubChem BioAssay AID1259415 (National Center for Advancing Translational Sciences (NCATS), 2018).
In all, about 410,000 compounds went through this assay and about 18,000 (4.4%) were called active. Inconclusive means that the source gave no clear call. Such entries were picked first, then a sample of the others. Cut-off read from the data, not from the text of the source: active = activity change below about -60%; inconclusive = no clear call, values can overlap the other calls; inactive = above about -39%.
% is set by controls: 0 for no effect and ±100 for the full control effect.

Assay: qHTS Assay for inhibitors of the human cytomegalovirus (HCMV)
Settings: HFF cells, HCMV-luciferase reporter, 72 h; at 57.5 µM; hits give low values
Outline: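 Compounds were evaluated in HFFs infected with an HCMV luciferase reporter virus (MOI 1 PFU/cell). Luciferase in lysates collected 72 h post infection served as the replication measure.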
In the case of `CCOC(=O)C1=C(c2ccc(OC)cc2)C(=O)c2ccccc2C1=O`, the activity change, negative = inhibition is reported as inconclusive: -56.6%.
For `CC(=O)Nc1ccc(N/C=C/C(=O)c2ccc(Cl)cc2)cc1`, the activity change, negative = inhibition was inactive: 25.9%.
With `CN1[C@@H]2CC[C@H]1CC(OC(=O)c1c[nH]c3ccccc13)C2` (stereo partly drawn) the activity change, negative = inhibition was inactive: -25.6%.
For `NC(=O)Cc1nc(-c2ccc([N+](=O)[O-])cc2)cs1`, the activity change, negative = inhibition was active: -92.7%.
With `COc1cccc(-c2nn(-c3ccccc3)cc2/C=C\C(=O)c2cccs2)c1` the activity change, negative = inhibition was inconclusive: -53%.
For `Cc1ccc(-c2cc(C(F)F)n3ncc(C(=O)N4CCN5CCCC5C4)c3n2)cc1` (stereo not drawn), the activity change, negative = inhibition was inconclusive: -51.1%.
In the case of `CC(C)N1CCC(C)(C(=O)Nc2cccc(Oc3ccccc3)c2)C1` (stereo not drawn), the activity change, negative = inhibition is reported as inconclusive: -48.3%.
In the case of `COc1cccc(/C=C/C(=O)Nc2ccc(OC)nc2)c1`, the activity change, negative = inhibition is reported as active: -66%.
In the case of `COc1ccc(S(=O)(=O)N2CCOCC2)cc1NC(=O)CSc1nnc(C2CC2)n1N`, the activity change, negative = inhibition is reported as inactive: 5.54%.
For `CNS(=O)(=O)c1cccc(C(=O)NCC(c2ccco2)N(C)C)c1` (stereo not drawn), the activity change, negative = inhibition was inconclusive: -49.2%.
With `C=CCn1c(=O)c2c3c(sc2n2c(Nc4ccccc4)nnc12)CCCC3` the activity change, negative = inhibition was inconclusive: -54.7%.
With `COc1ccc(-c2csc3nc(-c4cccnc4)nc(Cl)c23)cc1OC` the activity change, negative = inhibition was active: -70.5%.
With `Cc1cccc(N2N=C(C(=O)N3CC(=O)Nc4ccccc43)CCC2=O)c1` the activity change, negative = inhibition was inconclusive: -58.1%.
For `CCN(C(=O)Cn1nc(Cc2cccnc2)c2ccccc2c1=O)c1cc(C)ccc1C`, the activity change, negative = inhibition was inconclusive: -49.1%.
In the case of `O=C(Nc1ccc(Cl)cn1)c1ccc(Oc2ccccc2)cc1`, the activity change, negative = inhibition is reported as inactive: 38.9%.
In the case of `O=C(CNC(=O)N1CC(=O)Nc2ccccc21)NCc1ccccc1`, the activity change, negative = inhibition is reported as inactive: 7.45%.
For `CC1CC(NC(=O)c2c(O)nc3sccn3c2=O)CC(C)(C)C1` (stereo not drawn), the activity change, negative = inhibition was inconclusive: -50%.
For `CC(=O)N1CCN2C(=O)C1CCCC(=O)c1cc(C(C)C)ccc12` (stereo not drawn), the activity change, negative = inhibition was active: -67.4%.
For `C=CCc1c(C)nc2c(OC)cccc2c1Cl`, the activity change, negative = inhibition was active: -83.4%.
For `Nc1nc(N=Nc2ccc(O)cc2)cc(=O)[nH]1`, the activity change, negative = inhibition was inconclusive: -40.9%.
For `O=C(CCCCCN1C(=O)CCC1=O)Nc1ccc(Cl)c(C(F)(F)F)c1`, the activity change, negative = inhibition was active: -64.1%.
In the case of `COc1ccc(Cl)cc1S(=O)(=O)NCc1nc2nc(C)cc(C)n2n1`, the activity change, negative = inhibition is reported as inconclusive: -44.7%.
For `Cn1nnc(NC(=S)NC(=O)c2cccs2)n1`, the activity change, negative = inhibition was inconclusive: -43.7%.
With `CCCc1oc2ccc(NS(=O)(=O)c3ccc(OC)cc3)cc2c1C(=O)OCC` the activity change, negative = inhibition was active: -82.8%.
For `COc1cc(/C=N/N2C(=O)c3ccccc3C2=O)ccc1O`, the activity change, negative = inhibition was inactive: 1.93%.
With `Cc1ccc(C(=O)Nc2ccccc2N2CCCCC2)o1` the activity change, negative = inhibition was active: -61%.
For `O=C(NNc1ncnc2c1cnn2-c1ccccc1)c1ccccc1`, the activity change, negative = inhibition was inconclusive: 0%.
In the case of `COCCNC(=O)Cn1c(=O)n(-c2ccc(C)c(C)c2)c(=O)c2c3c(sc21)CCCCC3`, the activity change, negative = inhibition is reported as inactive: -0.418%.
In the case of `O=C(Nc1nccs1)c1ccc(N2C(=O)C3CCCCC3C2=O)cc1` (stereo not drawn), the activity change, negative = inhibition is reported as inactive: 13.1%.
In the case of `COc1ccc(-c2ccc(-c3nnc(-c4cc(OC)ccc4OC)o3)cc2)cc1`, the activity change, negative = inhibition is reported as inactive: -29.6%.
With `Cc1cc(C)nc(/N=C(\N)Nc2ccccc2-c2ccccc2)n1` the activity change, negative = inhibition was inconclusive: -54.6%.
In the case of `CCN1CCN(c2ccc(S(=O)(=O)N3CCCCC3)cc2N)CC1`, the activity change, negative = inhibition is reported as inconclusive: -44.8%.
With `NC1=NC2(CS1)CSC(N)=N2` the activity change, negative = inhibition was inactive: 34.3%.
With `COc1ccc(CNCC(O)(c2ccccc2)c2ccc(F)cc2)cc1` (stereo not drawn) the activity change, negative = inhibition was inconclusive: -43.9%.
In the case of `Cc1c(C(=O)NCCSCc2c(F)cccc2Cl)cnn1-c1ccc(Cl)cc1`, the activity change, negative = inhibition is reported as inconclusive: -51.3%.
In the case of `O=C(CCCCCNC(=O)N1CCn2c1nc1ccccc12)N[C@@H](C(=O)O)c1ccccc1`, the activity change, negative = inhibition is reported as inactive: -4.18%.
For `N/C(=N\OC(=O)C(c1ccccc1)c1ccccc1)c1ccccn1`, the activity change, negative = inhibition was inactive: 64.8%.
With `COc1ccc2cc3c(N)nn(C(=O)C4CCC(C(C)(C)C)CC4)c3nc2c1` (stereo not drawn) the activity change, negative = inhibition was active: -79.4%.
In the case of `Cc1c(C(=O)N/N=C/c2cccc(O)c2)nnn1-c1nonc1N`, the activity change, negative = inhibition is reported as inconclusive: -41%.
With `COc1ccc(Cc2c(-c3ccc(F)cc3)nc3cc(C)c(Br)c(C)n23)c(C)c1` the activity change, negative = inhibition was inactive: 37.7%.
For `Cc1ccccc1NC(=S)N(CCN(C)C)C(C)c1ccccn1` (stereo not drawn), the activity change, negative = inhibition was inconclusive: -49.9%.
With `O=S1(=O)C[C@H](N2CC[C@@H](O)C2)[C@@H](COCc2ccccc2)N1` the activity change, negative = inhibition was inactive: 3.25%.
For `COc1cccc(CNc2nc(NCc3cccs3)nc3ccsc23)c1`, the activity change, negative = inhibition was inconclusive: -54.1%.
With `NC(=O)C1CCN(c2cc(Cl)ccc2[N+](=O)[O-])CC1` the activity change, negative = inhibition was inconclusive: -52.4%.
For `COc1cccc2c1OCC(C(=O)OCc1cccnc1)=C2`, the activity change, negative = inhibition was inconclusive: -51.5%.
For `O=C(Nc1ccc(N2CCOCC2)cc1)c1ccc(Cl)c(S(=O)(=O)N2CCCC2)c1`, the activity change, negative = inhibition was inconclusive: -59.7%.
For `CC(C)C1C(c2ccccc2)NC(c2ccccc2)CC1(O)c1ccc(F)cc1` (stereo not drawn), the activity change, negative = inhibition was inactive: -3.51%.
In the case of `COc1cccc(-c2cnc(OC(C)(C)C)nc2OC(C)(C)C)c1`, the activity change, negative = inhibition is reported as inconclusive: -53.9%.
With `CSc1nc(Cl)c(Cc2ccc(OCC(C)C)cc2)c(N2CCOCC2)n1` the activity change, negative = inhibition was inconclusive: -59.9%.
For `Cc1ccc2c(c1)C(c1ccc(F)cc1)N(C(=O)C(C)C)CC(=O)N2` (stereo not drawn), the activity change, negative = inhibition was active: -105%.
In the case of `COc1cc(C(=O)N[C@H](C(=O)OCC(=O)NC2CCCCCC2)C(C)C)cc(OC)c1OC`, the activity change, negative = inhibition is reported as inactive: 41.8%.
In the case of `CC1(C(=O)NCc2ccco2)Cc2c(-c3ccc4c(c3)OCO4)ccnc2O1` (stereo not drawn), the activity change, negative = inhibition is reported as inconclusive: -55%.
For `CCN(Cc1ccccc1)C(=O)Cn1c(=O)oc2ccccc21`, the activity change, negative = inhibition was inconclusive: -51.1%.
For `CN(C)/N=C/c1ccc(Sc2ccc([N+](=O)[O-])cc2[N+](=O)[O-])o1`, the activity change, negative = inhibition was inconclusive: -55.2%.
In the case of `COCCn1c(C)cc(C(=O)COC(=O)/C=C/c2c(C)nn(C3CCS(=O)(=O)C3)c2Cl)c1C` (stereo not drawn), the activity change, negative = inhibition is reported as inconclusive: -43%.
With `Nc1n[nH]c(-c2ccccc2[N+](=O)[O-])n1` the activity change, negative = inhibition was active: -95.8%.
In the case of `O=C(Nc1ccccn1)c1cccc(S(=O)(=O)N2CCCc3ccccc32)c1`, the activity change, negative = inhibition is reported as inconclusive: -42.7%.
In the case of `CC(C)(C)c1ccc(NC(=O)COC(=O)C2=COCCO2)cc1`, the activity change, negative = inhibition is reported as inconclusive: -56.7%.
With `Cc1cc(OC(=O)c2c(Cl)cc(Cl)cc2Cl)nc(C)n1` the activity change, negative = inhibition was inconclusive: -48%.
For `S=C(Nc1ccccc1Cl)NC1CCC(NC(=S)Nc2ccccc2Cl)CC1` (stereo not drawn), the activity change, negative = inhibition was inconclusive: -48.8%.
For `O=C(Nc1ccnn1C1CCN(Cc2cc3ccccc3[nH]2)CC1)C1CCOC1` (stereo not drawn), the activity change, negative = inhibition was inconclusive: -42%.
For `Cc1cc(C)c2nc(C(F)(F)F)nc(N3CC(C)OC(C)C3)c2c1` (stereo not drawn), the activity change, negative = inhibition was inconclusive: -40.7%.
For `Cc1nc(N2CCC(C(N)=O)CC2)c2c(-c3cccs3)csc2n1`, the activity change, negative = inhibition was inconclusive: -43.2%.
In the case of `COc1ccc(C2=CC3=C(Br)C(=O)C(C)(OC(=O)c4cccs4)C(=O)C3=CO2)cc1` (stereo not drawn), the activity change, negative = inhibition is reported as inactive: 22.5%.
With `CCC1CCCCN1CCCNC(=O)CSc1nc2nc(C)c(Cc3ccccc3)c(C)n2n1` (stereo not drawn) the activity change, negative = inhibition was inconclusive: -55.2%.
For `Cc1nn(Cc2ccc(Cl)cc2)c(C)c1NC(=O)c1cc(C(C)C)on1`, the activity change, negative = inhibition was inconclusive: -52.6%.
In the case of `CN(C)C1=NC[C@H](Cc2ccccc2)N1CCCC1CCCC1`, the activity change, negative = inhibition is reported as inactive: -8.28%.
For `O=[N+]([O-])c1ccc(N2CCN(C(=S)NCc3ccc(Cl)cc3)CC2)cc1`, the activity change, negative = inhibition was active: -90.2%.
In the case of `C[C@@H]1C(=O)O[C@H](C)[C@H]1C[C@@H](O)[C@](C)(O)C1CC[C@@]2(O)C3=CC(=O)[C@@H]4C[C@@H](O)[C@@H](O)C[C@]4(C)C3CC[C@]12C` (stereo partly drawn), the activity change, negative = inhibition is reported as inactive: -21.7%.
With `Cc1nc(NC(=O)c2cc(-n3cnnc3)ccc2Cl)ccc1Br` the activity change, negative = inhibition was inactive: -23.3%.
In the case of `COc1cccc(N(C(=O)c2ccco2)C(C(=O)NC2CCCC2)c2cccnc2)c1` (stereo not drawn), the activity change, negative = inhibition is reported as inconclusive: -42.3%.
With `Cc1ccc(NC2=CC(=O)C(=O)c3ccccc32)cc1` the activity change, negative = inhibition was active: -104%.
With `Cc1ccc2[nH]cc(CCCN3C(=O)c4ccccc4C3=O)c2c1` the activity change, negative = inhibition was inconclusive: -45.5%.
With `Cc1noc(NS(=O)(=O)c2ccc(N/C=C\C(=O)c3ccc(Br)cc3)cc2)c1C` the activity change, negative = inhibition was inactive: 64.6%.
In the case of `CCOC(=O)c1c(NC(=O)COC(=O)c2nc(Cl)ccc2Cl)sc2c1CCC2`, the activity change, negative = inhibition is reported as active: -61.2%.
In the case of `O=C(NCc1ccncc1)C1CCCN(S(=O)(=O)c2ccc(Br)cc2)C1` (stereo not drawn), the activity change, negative = inhibition is reported as inconclusive: -57.2%.
In the case of `CCCCNc1nnc(SCC(=O)c2c(N)n(CCC)c(=O)[nH]c2=O)s1`, the activity change, negative = inhibition is reported as inconclusive: -47.9%.
For `Cc1ccc(NC(=O)NC(=O)COc2ccc(Cl)cc2Cl)c(C)c1`, the activity change, negative = inhibition was inconclusive: -49.2%.
For `Cc1cc(C(=O)Nc2ccccc2C)n(-c2ccccc2)n1`, the activity change, negative = inhibition was inconclusive: -40.1%.
In the case of `NC(=O)c1c(NC(=S)Nc2ccc(F)cc2)sc2c1CCCC2`, the activity change, negative = inhibition is reported as inconclusive: -59.5%.
For `Nc1c(C(=O)c2ccccc2O)cnn1-c1ccc(S(=O)(=O)N2CCOCC2)cc1[N+](=O)[O-]`, the activity change, negative = inhibition was inconclusive: -46.2%.
For `Cc1ccc(-c2c[n+]3c(n2-c2ccccc2)CCC3)cc1`, the activity change, negative = inhibition was active: -95.8%.
For `COc1cccc(NC(=O)CSc2nc(O)c(C/C=C/c3ccccc3)c(=O)[nH]2)c1`, the activity change, negative = inhibition was inactive: 22.9%.
With `O=C(CN1CCOCC1)n1c2c(c3ccccc31)CCCC2` the activity change, negative = inhibition was inactive: 3.14%.
With `O=C(CCCN1C(=O)/C(=C\c2cccs2)SC1=S)Nc1cccc(C(=O)O)c1` the activity change, negative = inhibition was inconclusive: -51.7%.
For `CC(NC(=O)COc1ccccc1)C(=O)N1CCN(c2ccc(F)cc2)CC1` (stereo not drawn), the activity change, negative = inhibition was inconclusive: 0%.
In the case of `O=C1CCC(C(=O)Nc2ccc(Cl)cc2)N1` (stereo not drawn), the activity change, negative = inhibition is reported as inactive: 14.4%.
In the case of `C#CC1CCCCC1NC(=O)Nc1cnccc1C(F)(F)F` (stereo not drawn), the activity change, negative = inhibition is reported as inactive: 9.83%.
